Assay results published in the supplement of paper PMC9254222.
Structures can show the parent of a compound that is named as a salt. In all, about 1,100 compounds were measured (“Renilla luciferase signal (cell health) relative to plate median”: median about 0.97, highest 2% from about 1.6 on). Only a part is listed here, and it is no random draw.

System: HEK293T (UBE3A T485A transfected, BAR Wnt reporter)
Assay: Renilla luciferase signal (cell health) relative to plate median (fold (linear ratio)); higher = higher Renilla signal
Details: 24 h
Outline: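 Chemicals at 0.01–100 uM were left on transfected HEK293T cells for 24 h, after a four-hour wait following transfection. The cells held a BAR firefly luciferase Wnt reporter, TK-Renilla and an expression plasmid. Wnt activity, as the firefly/Renilla ratio from a Dual-Glo luciferase readout, and cell health, as raw Renilla, were median-centred within each plate. Results average four biological replicates.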

Structure (SMILES) | Renilla luciferase signal (concentration: 0.1 uM) | Renilla luciferase signal (concentration: 1 uM) | Renilla luciferase signal (concentration: 10 uM) | Renilla luciferase signal (concentration: 100 uM) | Renilla luciferase signal (concentration: 0.01 uM)
O=C(OCCCCCCOC(=O)c1ccccc1)c1ccccc1 [Hexane-1,6-diyl dibenzoate] | 0.949 | 1.06 | 1.04 | 1.06 | 
CCCC[C@H]1CN(CC2CCOCC2)C(=O)OC12CCN(C1(C)CCN(C(=O)c3c(C)ncnc3C)CC1)CC2 | 1.08 | 1 | 1.05 | 1.06 | 
C[C@]12C=CC(=O)C=C1CC[C@@H]1[C@@H]2C(=O)C[C@@]2(C)[C@H]1CC[C@]2(O)C(=O)CO [Prednisone] | 1.1 | 1.05 | 1.14 | 1.25 | 
COC(=O)c1ccc(C(=O)OC)cc1 [Dimethyl terephthalate] | 0.95 | 1.09 | 1.01 | 1.36 | 
CCOC(=O)CC(O)(CC(=O)OCC)C(=O)OCC [Triethyl citrate] | 0.872 | 0.912 | 0.925 | 1.18 | 
Cc1ccc(C)c(O)c1C [2,3,6-Trimethylphenol] | 0.934 | 0.808 | 0.965 | 1.14 | 
CCCC(CCC)C(=O)O [Valproic acid] | 0.847 | 0.87 | 0.883 | 1.56 | 0.788
CC(C)c1ccc(C(=O)N=C(N)N)cc1S(C)(=O)=O.CS(=O)(=O)O [Cariporide mesylate] | 0.921 | 0.862 | 0.925 | 0.891 | 
O=C(CCCN1CCC(O)(c2ccc(Cl)cc2)CC1)c1ccc(F)cc1 [Haloperidol] | 0.97 | 0.967 | 1.03 | 0.499 | 
CCCCCCc1ccc(O)cc1O [4-Hexylresorcinol] | 0.881 | 1.04 | 0.888 | 0.0332 | 
CC(=O)Oc1ccccc1C(=O)O [Aspirin] | 0.978 | 0.932 | 1.05 | 1.24 | 
O=C1OC(c2ccc(O)cc2)(c2ccc(O)cc2)c2ccccc21 [Phenolphthalein] | 1.1 | 1.09 | 1.15 | 0.0287 | 
CCn1nc(C)c2c1C(=O)NCC(c1ccc(O)cc1)=N2 | 1.07 | 0.999 | 0.744 | 0.116 | 
NC(=O)Cn1c(=O)cc(CCN2CCN(c3nccc4sccc34)CC2)c2ccc(F)cc21 [Trelanserin] | 0.931 | 1.12 | 0.985 | 0.822 | 
Cc1ccc(C(C)C)c(O)c1 [Thymol] | 0.772 | 0.833 | 0.856 | 1.04 | 
OCC(O)CO [Glycerol] | 0.57 | 0.665 | 0.669 | 0.79 | 
CCN(CC)C(=S)SSC(=S)N(CC)CC [Disulfiram] | 0.78 | 0.851 | 0.853 | 0.534 | 
O=N[O-].[Na+] [Sodium nitrite] | 0.92 | 0.884 | 0.752 | 0.941 | 
OCc1ccccc1 [Benzyl alcohol] | 0.821 | 0.813 | 0.845 | 0.911 | 
NC=O [Formamide] | 0.915 | 0.912 | 0.94 | 1.41 | 
COc1cc(S(=O)(=O)[O-])c(C)cc1/N=N/c1c(O)ccc2cc(S(=O)(=O)[O-])ccc12.[Na+].[Na+] | 0.934 | 0.936 | 0.887 | 0.502 | 
Oc1ccc(O)cc1 [Hydroquinone] | 1.05 | 1.01 | 0.978 | 0.111 | 

6 structures from above, arranged by heavy-atom count, rising.
Structure (SMILES) | Renilla luciferase signal (concentration: 0.1 uM) | Renilla luciferase signal (concentration: 1 uM) | Renilla luciferase signal (concentration: 10 uM) | Renilla luciferase signal (concentration: 100 uM) | Renilla luciferase signal (concentration: 0.01 uM)
NC=O [Formamide] | 0.915 | 0.912 | 0.94 | 1.41 | 
CCCC(CCC)C(=O)O [Valproic acid] | 0.847 | 0.87 | 0.883 | 1.56 | 0.788
Cc1ccc(C(C)C)c(O)c1 [Thymol] | 0.772 | 0.833 | 0.856 | 1.04 | 
O=C(OCCCCCCOC(=O)c1ccccc1)c1ccccc1 [Hexane-1,6-diyl dibenzoate] | 0.949 | 1.06 | 1.04 | 1.06 | 
C[C@]12C=CC(=O)C=C1CC[C@@H]1[C@@H]2C(=O)C[C@@]2(C)[C@H]1CC[C@]2(O)C(=O)CO [Prednisone] | 1.1 | 1.05 | 1.14 | 1.25 | 
CCCC[C@H]1CN(CC2CCOCC2)C(=O)OC12CCN(C1(C)CCN(C(=O)c3c(C)ncnc3C)CC1)CC2 | 1.08 | 1 | 1.05 | 1.06 | 

Next part

Structure (SMILES) | Renilla luciferase signal (concentration: 0.1 uM) | Renilla luciferase signal (concentration: 1 uM) | Renilla luciferase signal (concentration: 10 uM) | Renilla luciferase signal (concentration: 100 uM) | Renilla luciferase signal (concentration: 0.01 uM)
CCc1ccc(CCOc2ccc(CC3SC(=O)NC3=O)cc2)nc1.Cl (stereo not given) [Pioglitazone hydrochloride] | 1.05 | 1.04 | 1.05 | 0.846 | 
CNCc1ccc(NC(=O)c2c[nH]c3c2C(=O)CCC3)cc1 | 0.616 | 0.8 | 0.437 | 0.144 | 
CCCCC(CC)C(=O)OCCOCCOCCOC(=O)C(CC)CCCC (stereo not given) [Triethylene glycol bis(2-ethylhexanoate)] | 0.926 | 1.01 | 1.02 | 1.52 | 
O=C(O)c1cccc(C(=O)O)c1 [1,3-Benzenedicarboxylic acid] | 1.04 | 1.04 | 1.06 | 1.35 | 
CNC(=O)[C@H]1O[C@@H](n2cnc3c(NCc4cc(Cl)ccc4OCc4cc(C)no4)ncnc32)[C@H](O)[C@@H]1N | 0.795 | 0.845 | 0.795 | 1.12 | 
Nc1ccc2c(c1)C(=O)c1ccccc1C2=O [2-Aminoanthraquinone] | 1.16 | 0.898 | 0.829 | 0.621 | 
O=c1ccc2ccccc2o1 [Coumarin] | 1.21 | 1.07 | 1.11 | 1.15 | 
CS(=O)(=O)OCCCCOS(C)(=O)=O [Busulfan] | 0.819 | 0.808 | 0.89 | 1.06 | 
OCCO [Ethylene glycol] | 0.433 | 0.696 | 0.664 | 1.01 | 
CCCCCCCCCCCCOS(=O)(=O)[O-].[Na+] [Sodium dodecyl sulfate] | 0.62 | 0.742 | 0.587 | 1.14 | 
COCCOC[C@H](CC1(C(=O)N[C@H]2CC[C@@H](C(=O)O)CC2)CCCC1)C(=O)Oc1ccc2c(c1)CCC2 [Candoxatril] | 0.88 | 0.879 | 0.984 | 1.03 | 
CC/C(=C(\c1ccccc1)c1ccc(OCCN(C)C)cc1)c1ccccc1 [Tamoxifen] | 1.03 | 1.05 | 0.837 | 0.264 | 
CSC(=O)c1cccc2nnsc12 [Acibenzolar-S-methyl] |  |  |  | 1.8 | 
OCCC(F)(F)C(F)(F)C(F)(F)C(F)(F)C(F)(F)C(F)(F)F [3,3,4,4,5,5,6,6,7,7,8,8,8-Tridecafluorooctan-1-ol] | 0.641 | 0.968 | 0.806 | 1.17 | 
NCCOCCOCCN [2,2'-[Ethane-1,2-diylbis(oxy)]diethanamine] | 0.612 | 0.862 | 0.846 | 0.971 | 
COc1ccc(/C=C/S(=O)(=O)[N-]C(=O)c2ccc(C)cc2Cl)cc1.[Na+] | 0.951 | 0.894 | 0.525 | 0.237 | 
O=C(OCCOCCOC(=O)c1ccccc1)c1ccccc1 [Diethylene glycol dibenzoate] | 0.873 | 0.885 | 1 | 1.18 | 
CC(C)(C)c1cc(O)c(C(C)(C)C)cc1O [2,5-Di-tert-butylbenzene-1,4-diol] | 1.04 | 0.969 | 0.801 | 0.0322 | 
CC(C)(O)c1ccc(CNC(=O)c2cccnc2Oc2ccc(F)cc2)cc1 | 1.01 | 1.09 | 1.01 | 0.119 | 
Cc1oc2c(NC(=O)c3c(Cl)cccc3Cl)cccc2c1C(C)(C)O | 1.07 | 0.836 | 0.823 | 0.0189 | 
O=C(O)c1ccccc1C(=O)OCc1ccccc1 [Monobenzyl phthalate] | 1.18 | 1.27 | 1.27 | 1.52 | 
CCCCCCCCCC [Decane] | 0.682 | 0.706 | 0.66 | 0.819 | 

Structure (SMILES) | Renilla luciferase signal (concentration: 0.1 uM) | Renilla luciferase signal (concentration: 1 uM) | Renilla luciferase signal (concentration: 10 uM) | Renilla luciferase signal (concentration: 100 uM) | Renilla luciferase signal (concentration: 0.01 uM)
O=C([O-])c1ccccc1.[Na+] [Sodium benzoate] | 1.2 | 1.1 | 0.949 | 1.16 | 
COc1ccc(CC(N)C(=O)NC2C(CO)OC(n3cnc4c(N(C)C)ncnc43)C2O)cc1 (stereo not given) [Puromycin] | 0.717 | 0.0869 | 0.00541 | 0.00641 | 0.815
NC1CCCCC1 [Cyclohexylamine] | 1.06 | 1 | 1.16 | 1.6 | 
CC(C)CC(C)O (stereo not given) [4-Methyl-2-pentanol] | 0.909 | 0.933 | 0.917 | 1.04 | 
O=[Si]=O [Silica] | 0.524 | 0.58 | 0.763 | 0.873 | 
CC1(C)NC(=O)NC1=O [5,5-Dimethylhydantoin] | 1.21 | 1.06 | 1.28 | 1.42 | 
COc1ccc2cc(S(=O)(=O)NC(CC(=O)NC(Cc3ccc(CN4C(C)CCCC4C)cc3)C(=O)N(C)C(C)C)c3ccc4c(c3)OCO4)ccc2c1.Cl (stereo not given) | 0.891 | 0.941 | 0.717 | 0.0302 | 
O=C(O)c1ccccc1 [Benzoic acid] |  |  |  | 1.77 | 
CS(=O)(=O)O.Cc1cc(CCN2CCN(c3nsc4ccccc34)CC2)cc2c1NC(=O)CC2(C)C | 0.732 | 0.744 | 0.441 | 0.0184 | 
CCCc1cc(=O)[nH]c(=S)[nH]1 [6-Propyl-2-thiouracil] | 0.55 | 0.608 | 0.692 | 0.473 | 
CCCCC(CC)COP(=O)(OCC(CC)CCCC)OCC(CC)CCCC (stereo not given) [Tris(2-ethylhexyl) phosphate] | 1.07 | 0.912 | 1.13 | 1.42 | 
CC(=O)c1ccc2c(c1)[C@H](NC(=O)c1ccc(F)cc1)[C@@H](O)C(C)(C)O2 [Carabersat] | 1.08 | 1.09 | 1.32 | 1.23 | 
C[C@]12CC[C@@H]3c4ccc(O)cc4CC[C@H]3[C@@H]1CC[C@@H]2O [17beta-Estradiol] | 0.82 | 0.745 | 0.676 | 0.0341 | 
CC1COc2c(N3CCN(C)CC3)c(F)cc3c(=O)c(C(=O)O)cn1c23 (stereo not given) [Levofloxacin] | 0.86 | 0.914 | 0.779 | 1.11 | 0.947
C1N2CN3CN1CN(C2)C3 [Methenamine] | 0.953 | 0.93 | 1.02 | 1.19 | 
O=C([O-])c1[nH]n(-c2ccc(S(=O)(=O)[O-])cc2)c(=O)c1/N=N/c1ccc(S(=O)(=O)[O-])cc1.[Na+].[Na+].[Na+] [FD&C Yellow 5] | 1.1 | 1.15 | 1.15 | 0.999 | 
OC[C@@H](O)[C@@H](O)[C@H](O)[C@H](O)CO [D-Mannitol] | 1.02 | 1.01 | 1.1 | 1.32 | 
CC(C)(c1ccc(O)cc1)c1ccc(O)cc1 [Bisphenol A] | 0.92 | 0.907 | 0.858 | 0.151 | 0.878
COc1cc(/C=C/C(=O)CC(=O)/C=C/c2ccc(O)c(OC)c2)ccc1O [Curcumin] | 0.957 | 0.979 | 0.827 | 0.0168 | 0.828
COC(=O)CCC(=O)OC [Dimethyl succinate] | 1.1 | 1.08 | 1.12 | 1.24 | 
